Changes are numbered by the printed parent chain. No constants are given. Whether binding was seen depends on the method and setting. In cells and extracts the contact can be indirect. Some entries that bind do so weakly or less than the wild type. Tags and fused reporters may be left off the sequences shown.
Experiments:
[1] = biological target: T1, Pbp1-FLAG (poly(A)-binding protein-binding protein 1, C-terminal Flag tag) (S. cerevisiae) (UniProt P53297); test: co-IP; Flag immunoprecipitation of Pbp1-Flag or Puf3-Flag from yeast grown in YPD or switched to YPL for 3 h; beads treated with or without RNase If for 15 min
T1 sequence: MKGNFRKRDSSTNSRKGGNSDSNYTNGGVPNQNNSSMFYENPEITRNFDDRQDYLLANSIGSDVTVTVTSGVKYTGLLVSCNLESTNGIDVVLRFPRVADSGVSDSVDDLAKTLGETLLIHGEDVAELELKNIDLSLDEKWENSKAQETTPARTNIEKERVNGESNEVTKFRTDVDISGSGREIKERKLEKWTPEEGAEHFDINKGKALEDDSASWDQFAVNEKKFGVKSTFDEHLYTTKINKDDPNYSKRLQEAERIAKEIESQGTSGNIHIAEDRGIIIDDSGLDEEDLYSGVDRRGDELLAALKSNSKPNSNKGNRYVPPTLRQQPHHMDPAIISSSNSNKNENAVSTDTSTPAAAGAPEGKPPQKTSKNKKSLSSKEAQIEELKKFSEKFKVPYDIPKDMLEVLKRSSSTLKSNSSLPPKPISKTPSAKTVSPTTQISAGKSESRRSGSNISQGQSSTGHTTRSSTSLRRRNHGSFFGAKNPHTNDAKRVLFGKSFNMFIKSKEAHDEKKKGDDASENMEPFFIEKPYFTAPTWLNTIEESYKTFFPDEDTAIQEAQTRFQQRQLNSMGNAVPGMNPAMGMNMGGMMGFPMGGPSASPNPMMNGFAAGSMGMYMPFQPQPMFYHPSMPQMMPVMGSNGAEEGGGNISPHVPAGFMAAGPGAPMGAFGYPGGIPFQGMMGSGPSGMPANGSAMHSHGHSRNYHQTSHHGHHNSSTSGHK

[2] = biological target: T2, Pbp1 M8F (eight methionines of the LCD mutated to phenylalanine), epitope-tagged (S. cerevisiae) (UniProt P53297); test: co-IP; anti-Flag M2 on Dynabeads Protein G added to cleared yeast lysates, 1–2 h at 4°C; lysis buffer 50 mM HEPES pH 7.5, 150 mM NaCl, 10 mM MgCl2, NP-40; wash 50 mM HEPES pH 7.5, 150 mM NaCl, 1 mM EDTA, 0.2% NP-40; HA blot; cells grown in YPD and switched to YPL (time points, mostly 3 h)
T2 sequence: T1 sequence with M591F, M595F, M605F, M606F, M614F, M616F, M618F, M625F

[3] = biological target: T3, Pbp1 M8S (eight methionines of the LCD mutated to serine), epitope-tagged (S. cerevisiae) (UniProt P53297); test: as above
T3 sequence: T1 sequence with M591S, M595S, M605S, M606S, M614S, M616S, M618S, M625S

[4] = biological target: T4, Pbp1 M8Y (eight methionines of the LCD mutated to tyrosine), epitope-tagged (S. cerevisiae) (UniProt P53297); test: as above
T4 sequence: T1 sequence with M591Y, M595Y, M605Y, M606Y, M614Y, M616Y, M618Y, M625Y

[5] = biological target: T1, Pbp1-FLAG (poly(A)-binding protein-binding protein 1, C-terminal Flag tag) (S. cerevisiae); test: as above

binding [1]: binds | binding [2]: binds | binding [3]: binds | binding [4]: binds | binding [5]: binds
B1: Puf3-HA (C-terminal HA tag) (protein, UniProt Q07807 1-879)
chain: MEMNMDMDMDMELASIVSSLSALSHSNNNGGQAAAAGIVNGGAAGSQQIGGFRRSSFTTANEVDSEILLLHGSSESSPIFKKTALSVGTAPPFSTNSKKFFGNGGNYYQYRSTDTASLSSASYNNYHTHHTAANLGKNNKVNHLLGQYSASIAGPVYYNGNDNNNSGGEGFFEKFGKSLIDGTRELESQDRPDAVNTQSQFISKSVSNASLDTQNTFEQNVESDKNFNKLNRNTTNSGSLYHSSSNSGSSASLESENAHYPKRNIWNVANTPVFRPSNNPAAVGATNVALPNQQDGPANNNFPPYMNGFPPNQFHQGPHYQNFPNYLIGSPSNFISQMISVQIPANEDTEDSNGKKKKKANRPSSVSSPSSPPNNSPFPFAYPNPMMFMPPPPLSAPQQQQQQQQQQQQEDQQQQQQQENPYIYYPTPNPIPVKMPKDEKTFKKRNNKNHPANNSNNANKQANPYLENSIPTKNTSKKNASSKSNESTANNHKSHSHSHPHSQSLQQQQQTYHRSPLLEQLRNSSSDKNSNSNMSLKDIFGHSLEFCKDQHGSRFIQRELATSPASEKEVIFNEIRDDAIELSNDVFGNYVIQKFFEFGSKIQKNTLVDQFKGNMKQLSLQMYACRVIQKALEYIDSNQRIELVLELSDSVLQMIKDQNGNHVIQKAIETIPIEKLPFILSSLTGHIYHLSTHSYGCRVIQRLLEFGSSEDQESILNELKDFIPYLIQDQYGNYVIQYVLQQDQFTNKEMVDIKQEIIETVANNVVEYSKHKFASNVVEKSILYGSKNQKDLIISKILPRDKNHALNLEDDSPMILMIKDQFANYVIQKLVNVSEGEGKKLIVIAIRAYLDKLNKSNSLGNRHLASVEKLAALVENAEV

Reference: publication PMC10237644
